Paper PMC12485048
These are yes or no findings as the source states them, for the method shown. Binding seen in cells or lysates may run through a third protein. Binding calls can cover weak binding; strength is not graded here.

Target: T1, SH3RF2 (mouse (endogenous in striatum)) (UniProt Q8BZT2)
T1 sequence: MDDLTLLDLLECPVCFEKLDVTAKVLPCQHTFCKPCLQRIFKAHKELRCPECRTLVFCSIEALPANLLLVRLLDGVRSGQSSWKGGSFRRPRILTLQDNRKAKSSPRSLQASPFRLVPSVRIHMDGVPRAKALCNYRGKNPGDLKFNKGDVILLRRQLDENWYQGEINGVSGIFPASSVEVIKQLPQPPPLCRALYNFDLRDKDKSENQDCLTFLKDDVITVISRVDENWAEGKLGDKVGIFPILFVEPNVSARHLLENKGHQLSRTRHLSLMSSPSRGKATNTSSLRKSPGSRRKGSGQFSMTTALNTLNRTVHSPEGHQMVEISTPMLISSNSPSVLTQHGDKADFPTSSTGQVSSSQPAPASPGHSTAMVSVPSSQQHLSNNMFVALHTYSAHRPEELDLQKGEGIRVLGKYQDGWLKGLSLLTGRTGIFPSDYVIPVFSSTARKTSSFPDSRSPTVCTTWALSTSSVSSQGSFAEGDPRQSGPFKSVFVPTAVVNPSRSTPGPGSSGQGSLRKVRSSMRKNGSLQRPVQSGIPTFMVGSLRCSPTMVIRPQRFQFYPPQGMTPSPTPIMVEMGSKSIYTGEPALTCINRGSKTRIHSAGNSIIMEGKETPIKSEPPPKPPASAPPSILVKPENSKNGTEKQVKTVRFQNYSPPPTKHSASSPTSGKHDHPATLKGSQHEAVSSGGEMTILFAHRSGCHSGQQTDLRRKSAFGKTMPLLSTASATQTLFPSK
Assay: co-IP; endogenous proteins in mouse striatum lysate (20 mM Tris-HCl pH 7.4, 50 mM NaCl, 0.5% NP-40, 10 mM HEPES, 0.5 mM EDTA); 2 μg primary antibody on Protein A/G or Protein G magnetic beads, lysate at 4 °C overnight; western blot; for CaMKII–PPP1CC, WT and Sh3rf2 KO striatum compared

binding: binds
Substance: Ca2+/calmodulin-dependent protein kinase II (CaMKII) (mouse (endogenous in striatum)) (enzyme)
